The source of these data is US20140213771A1.

The target of this assay is IL-17 (UniProt Q16552). Nature of the assay: SPR; clone 4 captured on anti huIgG FC surface, antigens (500 nM each) injected sequentially.

No constants are given. Whether binding was seen depends on the method and setting. Some binding calls cover weakened binding; strength is not graded here.

With “pDVD-Ig clone 4 (from UniProt P0DOX5 218-449; P0DOX5 218-449)”, the binding entry is “binds”.
